Earlier results in patent US6815183B1, “Plasmodium sp. chitinase” (The Board of Regents of the University of Texas System, priority 1999, dated 2004).
At least one compound was matched to its structure with a doubt left.

Assays:
[1] = system: P. gallinaceum in A. aegypti; details: allosamidin added to blood meal; Shahabuddin et al. 1993; cited from earlier work
[2] = system: P. falciparum in A. freeborni; details: allosamidin added to blood meal; Shahabuddin et al. 1993; cited from earlier work

CC(=O)N[C@H]1[C@H](O[C@H]2[C@@H](O)[C@@H](NC(C)=O)[C@H](O[C@H]3[C@H](O)[C@H]4N=C(N(C)C)O[C@H]4[C@@H]3CO)O[C@@H]2CO)O[C@H](CO)[C@@H](O)[C@H]1O [allosamidin]
oocyst development in presence of inhibitor [1]: fail to develop into oocysts | oocyst development in presence of inhibitor [2]: fail to develop into oocysts
